Results from the supplement of paper PMC10735217.
Where a name gives a salt, the structure may show the parent alone. The list shows a part of the results. Single values are uncertain here, since repeats match poorly.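 Human kidney-derived cells stably carry a construct in which eight TEAD-binding elements drive luciferase, measured by luminescence in a drug-repurposing library screen. A hit is any compound whose signal exceeds the plate mean by more than five robust Z scores.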

System: HEK293A TEAD-LUC reporter
Assay: TEAD-luciferase reporter activity (YAP activation), robust Z score vs plate; higher = stronger YAP/TEAD activation
Conditions: 24 h

Compound	TEAD-luciferase reporter activity (compound concentration: 200 nM)	TEAD-luciferase reporter activity (compound concentration: 2 uM)	TEAD-luciferase reporter activity (compound concentration: 10 uM)
O=c1c(F)cn(C2CCCO2)c(=O)n1C1CCCO1 (configuration not stated)	inactive: -2.15	inactive: 0.863	inactive: 0.942
NC(=O)C1CN(CC(=O)Nc2c(Cl)cccc2Cl)CCN1CCCC(c1ccc(F)cc1)c1ccc(F)cc1 (configuration not stated) [mioflazine]	inactive: 1.5	inactive: 0.546	inactive: -0.4
CNCCCC1(c2ccccc2)OC(C)(C)c2ccccc21 (configuration not stated) [talopram]	inactive: 1.19	inactive: 0.953	inactive: -0.816
CC(=O)N(CC(O)CN(C(C)=O)c1c(I)c(C(=O)NCC(O)CO)c(I)c(C(=O)NCC(O)CO)c1I)c1c(I)c(C(=O)NCC(O)CO)c(I)c(C(=O)NCC(O)CO)c1I (configuration not stated) [iodixanol]	–	inactive: 0.297	–
CC(=O)N(CC(O)CN(C(C)=O)c1c(I)c(C(=O)NCC(O)CO)c(I)c(C(=O)NCC(O)CO)c1I)c1c(I)c(C(=O)NCC(O)CO)c(I)c(C(=O)NCC(O)CO)c1I (configuration not stated)	inactive: 0.596	–	inactive: 4.6
CC1(C(=O)O)CC[C@]2(C)CC[C@]3(C)C(=CC(=O)[C@@H]4[C@@]5(C)CC[C@H](OC(=O)CCC(=O)O)C(C)(C)C5CC[C@]43C)[C@@H]2C1 (some centres not stated) [carbenoxolone, York]	inactive: 0.401	inactive: 2.06	inactive: 1.43
CCCCc1cc(NC(=O)c2cc(OC)c(OC)c(OC)c2)n2nccc2n1	inactive: -1.52	inactive: 0.639	inactive: -0.816
C[N+](C)(C)CCOP(=O)([O-])OP(=O)([O-])OCC1OC(n2ccc(N)nc2=O)[C@H](O)[C@@H]1O (some centres not stated) [citicoline]	inactive: 0.676	–	inactive: 1.61
CC(=O)NC[C@H]1CN(c2ccc(N3CCN(c4ccccn4)CC3)c(F)c2)C(=O)O1	inactive: 0.0146	inactive: 1.18	inactive: -0.698
C[C@H]1c2c([nH]c3ccc(C(F)(F)F)cc23)C[C@H]2CCN(CCC3(C(=O)O)CCCCC3)C[C@@H]21	inactive: 3.26	inactive: 0.873	inactive: -0.428
COc1cccc(-c2ccc(C(=O)N3CCC(C(=O)NCc4ccc5c(c4)OCO5)CC3)cc2)c1	inactive: 2.29	–	active: 6.55
Cc1ccc(/C=N/NC(N)=S)s1	inactive: -0.691	inactive: 2.74	inactive: 1.53
CC1(C)Oc2ccc(NC(=O)/C=C3\CCCOc4cc(C(F)(F)F)ccc43)cc2NC1=O	inactive: -1.26	inactive: -1.3	inactive: 2.06
CC(=O)[C@@]1(O)CC[C@H]2[C@@H]3C[C@H](C)C4=CC(=O)C=C[C@]4(C)[C@@]3(F)[C@@H](O)C[C@@]21C [fluorometholone, Allergan]	inactive: -1.41	inactive: 0.963	inactive: 3.37
CN(C)CCCn1c(=O)c2ccccc2c2ccccc21	inactive: 3.36	active: 7.73	active: 5.64
O=C(O)c1cc(-n2c(-c3ccccc3)cc3c2CCc2ccccc2-3)ccc1O	inactive: -0.03	inactive: 3.78	inactive: 1.02
Nc1nnc(NCCCOc2cccc(CN3CCCCC3)c2)s1	inactive: -0.83	inactive: -0.943	–

Compound	TEAD-luciferase reporter activity (compound concentration: 200 nM)	TEAD-luciferase reporter activity (compound concentration: 2 uM)	TEAD-luciferase reporter activity (compound concentration: 10 uM)
CCCCOc1cccc(CCNCC(=O)N(C)C)c1 [Evenamide hydrochloride]	inactive: -1.41	inactive: 0.485	inactive: 0.345
CC1(CCN2CCCCC2)C(=O)CCc2ccccc21 (configuration not stated) [Nepinalone]	inactive: -1.43	inactive: -1.19	inactive: -0.0362
COc1cccc(C2c3[nH]c4ccccc4c3C[C@H]3C(=O)N(CCC4=CCCCC4)CC(=O)N23)c1OC (some centres not stated)	inactive: -0.923	inactive: -1.78	inactive: -2.37
CCCCCCN(CCO)c1cc(N(CC)CC)nc2ncnn12	inactive: 0.0146	inactive: -0.581	inactive: 1.78
C#C[C@]1(OC(C)=O)CC[C@H]2[C@@H]3CCC4=CC(N=O)CC[C@@H]4[C@H]3CC[C@@]21CC (some centres not stated) [Norgestimate]	inactive: -0.707	inactive: 4.59	active: 8.86
CN1[C@@H]2CC[C@H]1C[C@@H](NC(=O)c1cc(Cl)cc3c1OC(C)(C)C3)C2	inactive: -2.28	inactive: -0.38	inactive: 1.05
COC(=O)C1=C(C)NC(C)=C(C(=O)OCCN2CCN(C(c3ccccc3)c3ccccc3)CC2)C1c1cccc([N+](=O)[O-])c1 (configuration not stated) [manidipine]	–	inactive: -2.34	–
COC(=O)C1=C(C)NC(C)=C(C(=O)OCCN2CCN(C(c3ccccc3)c3ccccc3)CC2)C1c1cccc([N+](=O)[O-])c1 (configuration not stated) [Manidipine (Manyper)]	inactive: 0.787	–	inactive: -0.754
O=S1(=O)OC(c2ccc(O)cc2)(c2ccc(O)cc2)c2ccccc21	inactive: -2.8	inactive: -2.52	active: 6.64
NCCCNc1ccc2c3c(nn2CCNCCO)-c2c(O)ccc(O)c2C(=O)c13 [Piroxantrone]	inactive: -0.137	inactive: 1.98	inactive: 3
COc1c(-c2ccc3cc(NS(C)(=O)=O)ccc3c2)cc(-n2ccc(=O)[nH]c2=O)cc1C(C)(C)C [Dasabuvir]	inactive: -1.18	inactive: 1.18	inactive: 0.00209
COc1c(C)cnc(Cn2cc(C#CCCOP(=O)(O)O)c3c(Cl)nc(N)nc32)c1C	inactive: -0.0199	–	inactive: -1.75
CC(=O)N1Cc2ccccc2CC2(CCCN2C)C1 (configuration not stated)	active: 5.49	–	inactive: 2.51
Cc1[nH]c2ccccc2c1C[C@H](NC(=O)[C@@H](Cc1c(C)[nH]c2ccccc12)NC(=O)[C@@H](Cc1c(C)[nH]c2ccccc12)NC(=O)CCCN)C(=O)N[C@@H](CCCCN)C(N)=O	inactive: 0.608	inactive: -1.01	inactive: -0.561
O=CC(O)C(O)C(O)C(O)COP(=O)(O)O (configuration not stated) [mannose-6-phosphate, BTG]	inactive: -0.975	–	inactive: -0.0018
O=C1c2ccccc2C(=O)C1(CN1CCOCC1)c1ccccc1	inactive: -1.39	inactive: -0.881	inactive: -0.0628

Reprinted from the results shown (3 entries):
Compound	TEAD-luciferase reporter activity (compound concentration: 200 nM)	TEAD-luciferase reporter activity (compound concentration: 2 uM)	TEAD-luciferase reporter activity (compound concentration: 10 uM)
C#C[C@]1(OC(C)=O)CC[C@H]2[C@@H]3CCC4=CC(N=O)CC[C@@H]4[C@H]3CC[C@@]21CC (some centres not stated) [Norgestimate]	inactive: -0.707	inactive: 4.59	active: 8.86
CN1[C@@H]2CC[C@H]1C[C@@H](NC(=O)c1cc(Cl)cc3c1OC(C)(C)C3)C2	inactive: -2.28	inactive: -0.38	inactive: 1.05
COC(=O)C1=C(C)NC(C)=C(C(=O)OCCN2CCN(C(c3ccccc3)c3ccccc3)CC2)C1c1cccc([N+](=O)[O-])c1 (configuration not stated) [manidipine]	–	inactive: -2.34	–
